PubChem BioAssay AID504774 – Drosophila RNAi Screening Center – 2011
The deposit covers about 23,000 reagents; shown is a random part of those with a known target gene and a result. 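Values are quantile-normalised luminescence on an arbitrary scale; higher means more cells surviving MMS.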 Names joined by + are all predicted targets of the reagent. Further read-outs or replicates are left out here.

Assay: 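Genes required for cells to withstand methyl methanesulphonate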 (primary screen)
Cell system: Drosophila Kc167 cells
Knock-down reagent: long dsRNA against Drosophila genes, about 0.25 µg dsRNA per well
Duration: about 6 days: 3 days knock-down, then 3 days with or without MMS
Treatment: methyl methanesulphonate 0.004% (w/v) for 3 days after knock-down
Detection: 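Viability in wells given MMS, read as ATP luminescence, normalised by quantiles plate by plate and averaged across replicates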
Reading the numbers: mean viability with MMS: higher = more surviving cells after MMS

| gene | amplicon | mean viability with MMS |
| --- | --- | --- |
| CG15293 (GeneID 34828) | DRSC01919 | 3.62e6 |
| dnr1 (GeneID 37575) | DRSC03948 | 3.45e6 |
| dnr1 (GeneID 37575) | DRSC04122 | 3.52e6 |
| CG4960 (GeneID 43115) | DRSC15684 | 3.60e6 |
| CG7564 (GeneID 39956) | DRSC10880 | 3.29e6 |
| Pex11ab (GeneID 36758) | DRSC07145 | 3.59e6 |
| CG9917 (GeneID 32596) | DRSC20218 | 3.45e6 |
| Ttc30 (GeneID 34702) | DRSC01300 | 3.63e6 |
| Ttc30 (GeneID 34702) | DRSC02818 | 3.76e6 |
| ana (GeneID 35913) | DRSC07579 | 3.42e6 |
| S6k (GeneID 38654) | DRSC11276 | 3.53e6 |
| Grx3 (GeneID 34745) | DRSC02966 | 3.57e6 |
| CG4572 (GeneID 42360) | DRSC15603 | 3.45e6 |
| RhoGEF3 (GeneID 38050) | DRSC08351 | 3.55e6 |
| RhoGEF3 (GeneID 38050) | DRSC08352 | 3.73e6 |
| htk (GeneID 32877) | DRSC20029 | 3.30e6 |
| htk (GeneID 32877) | DRSC20031 | 3.52e6 |
| CG32301 (GeneID 38285) | DRSC08613 | 3.55e6 |
| stnB + stnA | DRSC20969 | 1.66e6 |
| stnB + stnA | DRSC21112 | 3.57e6 |
| stnB + stnA | DRSC21113 | 3.47e6 |
| Ublcp1 (GeneID 42726) | DRSC14149 | 3.59e6 |
| CG34054 (GeneID 3885601) | DRSC05277 | 3.52e6 |
| CG14506 (GeneID 43467) | DRSC14858 | 3.58e6 |
| P5CS (GeneID 40443) | DRSC11831 | 3.62e6 |
| P5CS (GeneID 40443) | DRSC11832 | 3.60e6 |
| Rim2 (GeneID 33350) | DRSC00073 | 3.57e6 |
| Rim2 (GeneID 33350) | DRSC00520 | 3.58e6 |
| Rim2 (GeneID 33350) | DRSC22699 | 3.56e6 |
| EMC8-9 (GeneID 37635) | DRSC04380 | 3.56e6 |
| CG1246 (GeneID 38330) | DRSC08275 | 3.54e6 |
| Mic26-27 (GeneID 41959) | DRSC15913 | 3.78e6 |
| mRpL52 (GeneID 35711) | DRSC06585 | 3.52e6 |
| CG10413 (GeneID 35111) | DRSC02052 | 3.60e6 |
| Atg4a (GeneID 33283) | DRSC00656 | 3.63e6 |
| ACXB (GeneID 53427) | DRSC00845 | 3.56e6 |
| nopo (GeneID 37083) | DRSC06918 | 3.56e6 |
| Su(var)3-7 (GeneID 41627) | DRSC16872 | 3.55e6 |
| CG4835 (GeneID 38619) | DRSC10452 | 3.35e6 |
| CG13751 (GeneID 35879) | DRSC06422 | 3.63e6 |
| deltaCOP (GeneID 45250) | DRSC18760 | 3.42e6 |
| alphaSnap (GeneID 40233) | DRSC11285 | 3.41e6 |
| CG11590 (GeneID 32368) | DRSC19411 | 3.80e6 |
| Pde6 (GeneID 41760) | DRSC16401 | 3.51e6 |
| Pde6 (GeneID 41760) | DRSC16402 | 3.66e6 |
| Pde6 (GeneID 41760) | DRSC16403 | 3.49e6 |
| CG12112 (GeneID 31794) | DRSC17809 | 3.86e6 |
| CG30089 (GeneID 36736) | DRSC06126 | 3.54e6 |
| CG30089 (GeneID 36736) | DRSC06127 | 2.50e6 |
| CG30089 (GeneID 36736) | DRSC06267 | 3.47e6 |
| CG30089 (GeneID 36736) | DRSC06268 | 1.98e6 |
| CG30089 (GeneID 36736) | DRSC21694 | 3.43e6 |
| Usp14 (GeneID 34387) | DRSC02853 | 3.70e6 |
| Duba (GeneID 39302) | DRSC10582 | 3.49e6 |
| BobA (GeneID 50281) | DRSC09889 | 3.71e6 |
| CG14312 (GeneID 42195) | DRSC14791 | 3.43e6 |
| GAA1 (GeneID 31517) | DRSC18267 | 3.72e6 |
| GstD6 (GeneID 48339) | DRSC16687 | 3.56e6 |
| CG10311 (GeneID 41984) | DRSC14228 | 3.69e6 |
| stumps (GeneID 41770) | DRSC13045 | 3.68e6 |
| stumps (GeneID 41770) | DRSC15332 | 3.35e6 |
| stumps (GeneID 41770) | DRSC17073 | 3.54e6 |
| CR18228 (GeneID 8674096) | DRSC15317 | 3.41e6 |
| CG3097 (GeneID 31503) | DRSC18275 | 3.81e6 |
| Prx6c (GeneID 36098) | DRSC06080 | 3.64e6 |
| CG30393 (GeneID 246588) | DRSC04253 | 3.51e6 |
| PIG-H + Kmn2 | DRSC12653 | 3.42e6 |
| CG33225 (GeneID 2768860) | DRSC03881 | 3.32e6 |

Quoted from above for reference:
| gene | amplicon | mean viability with MMS |
| --- | --- | --- |
| dnr1 (GeneID 37575) | DRSC03948 | 3.45e6 |
| dnr1 (GeneID 37575) | DRSC04122 | 3.52e6 |
| CG4960 (GeneID 43115) | DRSC15684 | 3.60e6 |
| CG7564 (GeneID 39956) | DRSC10880 | 3.29e6 |
| Pex11ab (GeneID 36758) | DRSC07145 | 3.59e6 |
| CG9917 (GeneID 32596) | DRSC20218 | 3.45e6 |
| Ttc30 (GeneID 34702) | DRSC01300 | 3.63e6 |
| Ttc30 (GeneID 34702) | DRSC02818 | 3.76e6 |
| ana (GeneID 35913) | DRSC07579 | 3.42e6 |
